Results reported in patent US20240208935A1, “COMPOSITIONS AND METHODS FOR TREATING NEURODEGENERATIVE DISEASES” (The Regents of the University of California, priority 2021, published 2024).
“Also recorded” adds a separate entry of the source. For at least one compound, name, drawing or mass did not settle the structure.

The chains behind the UniProt entries cited, without tags or fusion partners. Where a name states a change or a piece, a line headed by the entry shows the natural chain unless it says otherwise. Residues count along the entry.
UniProt P22933, 25-449: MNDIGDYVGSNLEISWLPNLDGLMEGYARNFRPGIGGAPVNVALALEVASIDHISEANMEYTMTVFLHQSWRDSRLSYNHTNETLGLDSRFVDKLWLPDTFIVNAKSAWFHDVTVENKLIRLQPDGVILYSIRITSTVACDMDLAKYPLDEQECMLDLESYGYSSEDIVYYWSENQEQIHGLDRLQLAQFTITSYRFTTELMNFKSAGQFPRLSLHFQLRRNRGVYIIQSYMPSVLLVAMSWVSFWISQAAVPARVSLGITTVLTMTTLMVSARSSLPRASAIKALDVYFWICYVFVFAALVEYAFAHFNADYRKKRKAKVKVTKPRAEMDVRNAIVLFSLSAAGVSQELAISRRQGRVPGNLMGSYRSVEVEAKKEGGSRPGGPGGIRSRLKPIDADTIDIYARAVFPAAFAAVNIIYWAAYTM
UniProt P62812, 28-455: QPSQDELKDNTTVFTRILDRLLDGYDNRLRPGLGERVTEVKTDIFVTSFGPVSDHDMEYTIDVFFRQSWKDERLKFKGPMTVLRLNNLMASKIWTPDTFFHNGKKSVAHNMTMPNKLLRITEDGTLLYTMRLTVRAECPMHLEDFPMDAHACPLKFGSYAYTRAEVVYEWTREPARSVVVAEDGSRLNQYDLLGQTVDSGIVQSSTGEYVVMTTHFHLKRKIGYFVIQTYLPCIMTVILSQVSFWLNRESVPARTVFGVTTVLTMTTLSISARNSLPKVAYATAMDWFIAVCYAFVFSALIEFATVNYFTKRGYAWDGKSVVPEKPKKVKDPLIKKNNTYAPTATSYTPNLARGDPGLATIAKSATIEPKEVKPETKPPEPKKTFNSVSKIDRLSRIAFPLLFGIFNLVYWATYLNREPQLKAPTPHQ
UniProt P63137, 26-512: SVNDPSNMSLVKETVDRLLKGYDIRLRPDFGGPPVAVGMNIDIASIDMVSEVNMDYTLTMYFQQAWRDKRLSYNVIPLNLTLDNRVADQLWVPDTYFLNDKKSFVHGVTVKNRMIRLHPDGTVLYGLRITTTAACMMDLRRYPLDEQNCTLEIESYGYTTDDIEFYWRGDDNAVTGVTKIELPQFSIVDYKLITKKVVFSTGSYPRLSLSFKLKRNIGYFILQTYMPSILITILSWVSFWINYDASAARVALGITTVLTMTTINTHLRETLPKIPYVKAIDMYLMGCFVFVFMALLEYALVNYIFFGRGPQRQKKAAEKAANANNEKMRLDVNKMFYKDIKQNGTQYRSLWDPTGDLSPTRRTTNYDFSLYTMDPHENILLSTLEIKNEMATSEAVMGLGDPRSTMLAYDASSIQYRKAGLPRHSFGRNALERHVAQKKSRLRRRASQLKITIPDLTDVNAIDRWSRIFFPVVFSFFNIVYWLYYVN

Tests used:
α1β2δ GABAARs of PV+INs = molecular target: T1, α1β2δ GABAARs of PV+INs (Mus musculus, UniProt P22933+P62812+P63137); test: Tonic current recordings in fluorescently labeled PV+INs; type: cell-based, mice; conditions: 1 nM
T1 construct: the native α1β2δ receptors of PV+INs; from tissue; host or cells: mouse cortical and hippocampal brain slices; tdTomato-labelled PV+ interneurons
Text: Mice aged 8-24 weeks of both sexes will be anesthetized with halothane and decapitated according to the UCLA Chancellor's Animal Research Committee protocol. Horizontal 350 μm hippocampal slices are cut on a Leica VT1000S Vibratome in ice-cold N-Methyl-D-Glucamine (NMDG)-based HEPES-buffered cutting solution, containing in mM: NMDG 135, D-glucose 10, MgCl2 4, CaCl20.5, KCl 1, KH2PO4 1.2, HEPES 26, kynurenic acid 3, pH 7.3-7.4, 295-297 mOsm/l, bubbled with 100% O2. […]
For these experiments mice expressing hChR2(H134R)-tdTomato specifically in PV+Ins will be used. […] Cells will be voltage-clamped at 0 mV where tonic and phasic GABAAR mediated currents can be recorded without interference from excitatory events. The tonic and phasic components of the currents will be determined as published using Gaussian fits to the all-points histograms of 30 s epochs of recordings during the pre-drug period, 5-10 min after the washin of the drug to be tested, and 1-2 min after washing-in 40 μM of the pan-GABAAR blocker gabazine (SR-95531). The magnitude of the tonic and phasic currents willbe determined by subtracting the currents in the presence of gabazine. […]

[1] = tested on: γ-oscillations in the CA3 region hippocampal slices; test: In vitro KA-induced γ-oscillations in the CA3 region hippocampal slices; type: cell-based, mice; conditions: for power (RMS during 60 s epochs) of in vitro γ-oscillations: 20 min perfusion, vs vehicle (aCSF)
Experimental: Mice aged 8-24 weeks of both sexes will be anesthetized with halothane and decapitated according to the UCLA Chancellor's Animal Research Committee protocol. Horizontal 350 μm hippocampal slices are cut on a Leica VT1000S Vibratome in ice-cold N-Methyl-D-Glucamine (NMDG)-based HEPES-buffered cutting solution, containing in mM: NMDG 135, D-glucose 10, MgCl2 4, CaCl20.5, KCl 1, KH2PO4 1.2, HEPES 26, kynurenic acid 3, pH 7.3-7.4, 295-297 mOsm/l, bubbled with 100% O2. Slices will then be incubated for 30 min at room temperature (˜22° C.) in an interface chamber in modified sucrose aCSF, containing in mM: NaCl 85, D-glucose 25, sucrose 55, KCl 2.5, NaH2PO4 1.25, CaCl2 0.5, MgCl2 4, NaHCO3 26, at pH 7.3-7.4 when bubbled with 95% O2, 5% CO2. […] Healthy slices can remain under these storage conditions for up to 6 hours.
The oscillations can be recorded in the presence of 50 nM kainic acid in horizontally cut hippocampal slices just below the CA3 pyramidal cells layer, and the oscillations recorded in vitro correspond well to those recorded in vivo during spatial reference memory. In this region, the only cells with δ-GABAARs are the PV+INs. The squared magnitude of the FFT of the oscillations will be analyzed between 30-120 Hz. The area under the FFT curve will be calculated between these two frequencies and compared during a 2 min epoch just before the perfusion of the drug to the last 2 min of a 10 min drug perfusion. The ratios of the areas in-drug/pre-drug will be calculated as in FIG. 1B.
γ-oscillations were recorded in the presence of 50 nM kainic acid in horizontally cut hippocampal slices just below the CA3 pyramidal cells layer. These oscillations recorded in vitro correspond well to those recorded in vivo during spatial reference memory. In this region, the only cells with δ-GABAARs are the PV+INs. Additional experiments were carried out in vitro to substantiate the effect of DDL-920 on γ-oscillations recorded in vitro. […] The Morlet wavelet plots (lower panels) and the raw traces (white) show the increased oscillations amplitudes in two segments of 1 s lengths taken from the recordings during the periods indicated by ? and ? . These findings have been repeated in a large number of experiments (FIG. 3).

[2] = tested on: θ- and γ-oscillations, CA1 pyramidal layer of the hippocampal formation; test: In vivo local field potential (LFP) recordings, θ- and γ-oscillations and their coupling; set-up: species or system C57B16/J mice; conditions: 10 mg/kg SQ
[3] = 60-120 min after injection, vs SAL

On1cc(C2CCNCC2)c(Cc2ccc3ccccc3c2)n1 [DDL-920, 3-(naphthalen-2-ylmethyl)-4-(piperidin-4-yl)-1H-pyrazol-1-ol]
specificity for the inhibition of the tonic vs phasic current (α1β2δ GABAARs of PV+INs): 72 | magnitude of 40-50 Hz oscillations (Morlet wavelets) ([1]; 1 nM, 2 min epochs before and after application): large enhancement | power (RMS during 60 s epochs) of in vitro γ-oscillations ([1]; 1 nM): large increase | γ-oscillations (amplitude) ([1]; 100 nM, 10 min perfusion): significant increase; also recorded: large increase | power (RMS during 60 s epochs) of in vitro γ-oscillations ([1]; 100 nM): large increase | slope of modulation index (MI), after vs before injection [2, 3]: significantly (p<0.05) larger | slope of γ-oscillation power (γ RMS), after vs before injection [2, 3]: significantly (p<0.05) larger | amplitudes of the γ-oscillations, 1 s long epoch ([2]; after vs before injection): Larger amplitudes | γ-oscillation frequency ([2]; after vs before injection): remained the same | θ-oscillation frequency ([2]; after vs before injection): remained the same
